The entries are a selection whose mix differs from that of the whole data set. At the low end of the ranking the order means little.
Molecular target: CRX (UniProt O43186)
Assay: DAPPL (digital affinity profiling via proximity ligation, sequencing)
Conditions: 10 mM Tris-HCl pH 7.5, 50 mM NaCl, 1 mM DTT, 4% glycerol, room temperature, 30 min; GST-TFs on glutathione beads, 16-mer random dsDNA library, 0.1% …; high values mean tight binding; double strand, one strand shown; scale: fold enrichment (6-mer frequency, TF over GST control)

By UniProt entry, the sequences of proteins in these tests, tags left out. Where a name states a change or a piece, a line headed by the entry shows the natural chain unless it says otherwise.
UniProt O43186: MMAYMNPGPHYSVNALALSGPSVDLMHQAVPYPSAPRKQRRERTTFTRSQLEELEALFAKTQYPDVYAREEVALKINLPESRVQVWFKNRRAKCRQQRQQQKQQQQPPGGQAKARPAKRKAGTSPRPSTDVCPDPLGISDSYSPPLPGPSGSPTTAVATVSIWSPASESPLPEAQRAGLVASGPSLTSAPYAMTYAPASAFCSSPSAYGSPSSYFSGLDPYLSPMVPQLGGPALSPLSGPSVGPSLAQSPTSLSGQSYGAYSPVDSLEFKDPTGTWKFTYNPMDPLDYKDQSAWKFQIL

| Sequence | binding signal |
| --- | --- |
| TTCGAG | 1.96 |
| CGTATC | 0.964 |
| GCTGTT | 0.947 |
| CTCCAT | 1.19 |
| CACCTC | 0.798 |
| TAATCA | 2.51 |
| TGTGCC | 0.817 |
| ACCCAA | 0.974 |
| CGCCGC | 0.902 |
| AGCGCT | 1.01 |
| TACAAC | 0.986 |
| ACTAAT | 2.71 |
| TTAGCA | 2.38 |
| TATAGA | 1.45 |
| ATTGTT | 1.55 |
| TCAAGG | 1.09 |
| TCCGTA | 1.21 |
| TCTGAC | 0.997 |
| CTAGAT | 1.83 |
| ACGAAT | 1.21 |

| Sequence | binding signal |
| --- | --- |
| ATCTTA | 2.11 |
| TTTGTA | 1.89 |
| ACTCAA | 1.12 |
| CCATAC | 0.944 |
| ACCTCA | 0.952 |
| TGTCCC | 0.984 |
| CACACA | 0.813 |
| ATGTGG | 0.971 |
| CGATAG | 0.979 |
| TGATTT | 1.35 |
| GACCGG | 0.477 |
| TCTTGG | 1.32 |
| CGGAAC | 0.457 |
| CTGCTG | 1.01 |
| CACCCT | 0.98 |
| TGACGC | 0.995 |
| GGAACT | 0.937 |
| ACGTAC | 0.928 |
| ATGCGC | 1.14 |

Individual results from the list.
binding signal, ATGTGG is entered as 0.971
binding signal, TTTGTA is entered as 1.89

From paper PMC7862700
